Primary screen of a compound library

Mtb growth Cornell: 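Whole-cell assay for inhibitors of Mycobacterium tuberculosis growth, labelled Cornell in the record; the read-out is not stated. The concentration is filed as 10 mM, unlikely as a test dose, so the dose is not known. The record gives no direction; compounds strong in two other growth screens of this library score well above the rest, so higher reads as stronger inhibition. Of about 53,000 compounds tested this way, about 900 (1.7%) reached 50% or more in at least one test.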
Mtb heat-shock: 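Assay on Mycobacterium tuberculosis, filed only as a heat shock assay from Cornell; the read-out is not stated. The concentration is filed as 10 mM, unlikely as a test dose, so the dose is not known. The record gives no direction; compounds that gave an IC50 in retests scored well above the rest, so higher reads as stronger inhibition. Size under these conditions: about 69,000 compounds, about 930 of them at 50% or above in at least one test.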

The filed quantity is “Percent Effect” (%).
How 0% and 100% were set is not recorded. Most values in the screen are low, and negative values occur.
Compounds were drawn at random from those tested, without regard to their results.
A dash means the value is not listed here; it may have been measured.

| # | structure | Mtb growth Cornell | Mtb heat-shock |
|---|---|---|---|
| 1 | `CCc1ccc(C(=O)N2CCCC(n3cncn3)C2)o1` (stereo unspecified) | 9.295 | 27.29 |
| 2 | `CCn1cc(NC(=O)NCC(C)(C)N2CCc3ccccc3C2)cn1` | - | 0.7122 |
| 3 | `CCCNC(=O)c1cc(-c2cnc(N3CCCC3)nc2)cn1C` | -1.877 | 9.408 |
| 4 | `O=C(O)C(F)(F)F.[H][C@@]12CCN(CCc3ccccc3)C[C@]1([H])[C@H](C(=O)N(C)C)CCO2` | 4.406 | 8.779 |
| 5 | `CCn1nc(CC(C)C)cc1C(=O)N1CCCOC(CN2CCCC2)C1` (stereo unspecified) | - | 10.14 |
| 6 | `COCCN(C(=O)c1cc(-c2ccc(C)s2)[nH]n1)C1CC1` | 7.128 | -4.365 |
| 7 | `CCOc1ccc(CN(CCOC)C(=O)c2ccncc2Cl)cc1` | - | -2.226 |
| 8 | `CCc1nccn1C1CCCN(C(=O)c2cn3cccnc3n2)C1` (stereo unspecified) | 5.446 | 8.644 |
| 9 | `CC(C)c1cccc(NC(=O)Cn2c(=O)n(C)c(=O)c3sccc32)c1` | - | -13.99 |
| 10 | `Cc1nnc2n1CCN(C(=O)CN1C(=O)C(C)Oc3ccccc31)C2` (stereo unspecified) | 14.32 | 18.95 |
| 11 | `CSCC(=O)N1CCOC(c2nc(C)n[nH]2)C1` (stereo unspecified) | 19.23 | 1.661 |
| 12 | `COCCCN1CC2(CCN(C(=O)Cc3csc(C)n3)CC2)CC1=O` | -20.26 | 8.672 |
| 13 | `CN1CCN(C)C(CNC(=O)N(C)Cc2ccccc2Cl)C1` (stereo unspecified) | 20.41 | 0.7737 |
| 14 | `CCN(CCCNC(=O)Nc1ccccc1C(C)C)S(C)(=O)=O` | -25.97 | 5.778 |
| 15 | `Cc1nc(NC(=O)C2CCCN(C(=O)C3CC3)C2)sc1C` (stereo unspecified) | 8.341 | 3.505 |
| 16 | `c1cc(CNc2ccc(-c3nc(C4CC4)no3)cn2)no1` | 4.412 | -3.378 |
| 17 | `O=C(CC1C=CCC1)Nc1ncn(CC(=O)N2CCCCCC2)n1` (stereo unspecified) | - | 14.74 |
| 18 | `COc1ccccc1CC(=O)NC1CCCc2cn[nH]c21` (stereo unspecified) | -0.04809 | -26.56 |
| 19 | `COc1c(F)cc(CN2CCC3(CC2)CN(C)C(=O)O3)cc1Cl` | 11.82 | -26.59 |
| 20 | `Cc1nnc(CNC(=O)CC2CCc3ccccc32)o1` (stereo unspecified) | 16.51 | -20.62 |
| 21 | `CCc1ccc(C(=O)N(CC)Cc2ccoc2)cc1S(C)(=O)=O` | - | -1.939 |
| 22 | `CCC(NC(=O)C1CCN(S(C)(=O)=O)CC1)c1ccc(OC)c(OC)c1` (stereo unspecified) | -17.2 | 16.67 |
| 23 | `CN(Cc1ccco1)Cc1cnc2n1CCN(S(C)(=O)=O)CC2.O=C(O)C(F)(F)F` | -17.4 | -17.28 |
| 24 | `CCOC(C)c1noc(CN2CCNCC2)n1` (stereo unspecified) | 3.573 | -1.161 |
| 25 | `CCCN1CCCn2c(nc(CNC(=O)N3CCCC3)cc2=O)C1.O=C(O)C(F)(F)F` | -33.31 | -0.5748 |
| 26 | `CCC[C@H]1CN(C(=O)CCn2ccccc2=O)C[C@@H]1NS(C)(=O)=O` | -10.52 | 0.2539 |
| 27 | `O=C(C[S+]([O-])Cc1ccccc1F)N1CCc2sccc2C1` (stereo unspecified) | - | -29.23 |
| 28 | `CNCC(=O)N1CCCC(c2nccnc2Oc2cccc(F)c2)C1.Cl` (stereo unspecified) | - | -3.012 |
| 29 | `COC(=O)c1cccc(CN(C)C(C)c2ccccn2)c1` (stereo unspecified) | 21.51 | -7.966 |
| 30 | `COc1ccc2c(c1)CCCN2C(=O)CN1CCOC(CN(C)C)C1` (stereo unspecified) | 33.59 | 8.087 |
| 31 | `COc1cc(CNCC(O)c2cccc(F)c2)cc2c1OCO2.Cl` (stereo unspecified) | - | -9.248 |
| 32 | `Cc1nc(NCc2scnc2-c2ccccc2)cc(C2CCNCC2)n1` | -2.832 | 0.5259 |
| 33 | `Cc1cc(NC(=O)CN2CCCC2c2c(C)nn(C)c2Cl)on1` (stereo unspecified) | - | -9.352 |
| 34 | `COc1cc(C(=O)NCC2CCCN(Cc3ccco3)C2)ccn1` (stereo unspecified) | -18.63 | 6.795 |
| 35 | `Cc1ccc(N2CCCC(NCc3nnc(-c4ccco4)o3)C2)nn1` (stereo unspecified) | - | 18.16 |
| 36 | `O=C(O)C(F)(F)F.[H][C@]12CCC[C@@H](CN(C)C)[C@@]1([H])CN(c1cccnc1)C2` | - | -2.964 |
| 37 | `O=C(Cn1cnc2sccc2c1=O)NCCc1nnc2ccccn12` | 7.248 | -21.86 |
| 38 | `Cc1c(NC(=O)NC(C)CCO)cccc1OC1CCCC1` (stereo unspecified) | -5.886 | 7.166 |
| 39 | `Cl.O=S1(=O)CCC(NCCn2cncc2-c2ccc3c(c2)CCCO3)C1` (stereo unspecified) | 8.26 | 2.006 |
| 40 | `Cc1nc(Oc2ccccc2Cl)sc1C(=O)O` | 6.065 | -23.09 |
| 41 | `CC(C)(C)n1nc(C2CC2)cc1C(=O)NC1CCN(CC(N)=O)CC1` | 5.252 | 27.93 |
| 42 | `O=C(O)C(F)(F)F.O=C(c1ccncc1)N1CCCn2nnc(COCCO)c2C1` | 8.408 | 5.109 |
| 43 | `COc1ccc(C(C)=O)c(OCC(=O)NC(C)c2ccc(F)cc2)c1` (stereo unspecified) | -4.935 | -16.25 |
| 44 | `Cc1nc(CN(C)C(=O)C2CCC(=O)N(CCN(C)C)C2)cs1` (stereo unspecified) | -11.12 | -13.77 |
| 45 | `O=C(c1ccnn1COc1ccc(Cl)cc1)N1CCOCC1` | -5.671 | 10.14 |
| 46 | `Cn1cc(-c2nc(CN3CCOC(Cn4cccn4)C3)cs2)cn1` (stereo unspecified) | 6.267 | -10.14 |
| 47 | `O=C(CNCC1(O)CCCN(Cc2cccc(F)c2F)C1=O)NC1CC1` (stereo unspecified) | - | -28.23 |
| 48 | `NC(=O)c1ccc(NC(=O)c2ccncc2Cl)cn1` | -27.76 | -22.75 |
| 49 | `NC(=O)CN1CC2(CCC1=O)CCN(Cc1cc(F)ccc1Cl)CC2` | 19.6 | -2.901 |
| 50 | `COCCSCC(=O)NC1(c2cccc(Br)c2)CC1` | 21.38 | -6.512 |
| 51 | `COc1cccc(CNCc2nc3ccccc3c(=O)[nH]2)c1` | 23.24 | 81.36 |
| 52 | `COc1cc(C(=O)Nc2nc(C)no2)cc(OC)c1Br` | - | 104.3 |
| 53 | `COCCN(C)C(=O)c1ccc(OC)cc1O` | 37.99 | -1.782 |
| 54 | `COCCNc1nc2c(c(NCc3cnc(C)cn3)n1)CCNCC2` | 0.6219 | 7.141 |
| 55 | `Cc1cnc(C(C)(C)NC(=O)NCc2cccnc2OC(C)C)s1` | - | -7.388 |
| 56 | `NC1CCCN(Cc2cccc(C(F)(F)F)c2)C1=O` (stereo unspecified) | -23.12 | 5.3 |
| 57 | `CCOc1ncccc1NC(=O)N1CCCC(CNC(N)=O)C1` (stereo unspecified) | - | 4.388 |
| 58 | `Cc1nc(CN2CCN(c3ccc(Cl)cn3)CC2)no1` | 6.773 | -16.89 |
| 59 | `Clc1ccccc1C1CN(CCc2ccncc2)CCO1` (stereo unspecified) | 17.97 | -15.56 |
| 60 | `O=C(O)C(F)(F)F.[H][C@]12CCN(C(=O)NC(C)C)C[C@@]1([H])OCCN(Cc1csc(C)n1)C2` | 4.065 | 9.708 |
| 61 | `N#Cc1cccc(N2CCCC(CO)(CCOc3ccccc3)C2)n1` (stereo unspecified) | - | -15.28 |
| 62 | `N#Cc1cccc(OCCN2CCCC2C(=O)NCC(F)(F)F)c1` (stereo unspecified) | - | -6.799 |
| 63 | `Cc1ccc(NC(=O)c2ncc(C(N)=O)cc2Cl)cc1F` | 25.25 | -21.84 |
| 64 | `CSCCC(=O)N1CCN(CC(C)O)CC1` (stereo unspecified) | - | -14.56 |
| 65 | `CNC(=O)CN1CCCC12CCN(C(=O)c1ccccc1F)CC2.O=C(O)C(F)(F)F` | -37.13 | -3.934 |
| 66 | `O=C(c1ccc(C2CCCO2)s1)N1Cc2ccccc2C1` (stereo unspecified) | - | 35.16 |
| 67 | `Cc1nc2c(c(N(C)C)n1)CCN(C(=O)c1sccc1S(N)(=O)=O)C2` | -1.892 | -5.436 |
| 68 | `CCN(C(C)=O)c1nc(CN2CCCCC2Cn2cncn2)cs1` (stereo unspecified) | -6.178 | 2.48 |
| 69 | `Cc1nn(C)cc1S(=O)(=O)NCC(C)Cn1cc(Cl)cn1` (stereo unspecified) | 14.8 | 14.58 |
| 70 | `CCOc1ccc(C(=O)NCc2ccnc(N3CCN(C)CC3)c2)cn1` | 10.01 | -4.858 |
| 71 | `CCOC(=O)N1[C@@H](c2ccco2)[C@@H](C(=O)NC)C[C@]12CCCCNC2=O` | -14.76 | -1.392 |
| 72 | `Cc1ccc(S(C)(=O)=O)cc1NCC(=O)NCCC1=CCCCC1` | -9.998 | -27.89 |
| 73 | `CC(C)c1nc(CC(=O)Nc2cnccc2O)cs1` | -35.6 | -9.317 |

6 of the entries, repeated:

| structure | Mtb growth Cornell | Mtb heat-shock |
|---|---|---|
| `O=C(C[S+]([O-])Cc1ccccc1F)N1CCc2sccc2C1` (stereo unspecified) | - | -29.23 |
| `COc1cc(C(=O)NCC2CCCN(Cc3ccco3)C2)ccn1` (stereo unspecified) | -18.63 | 6.795 |
| `CSCCC(=O)N1CCN(CC(C)O)CC1` (stereo unspecified) | - | -14.56 |
| `Cc1cnc(C(C)(C)NC(=O)NCc2cccnc2OC(C)C)s1` | - | -7.388 |
| `Cc1ccc(S(C)(=O)=O)cc1NCC(=O)NCCC1=CCCCC1` | -9.998 | -27.89 |
| `CCCNC(=O)c1cc(-c2cnc(N3CCCC3)nc2)cn1C` | -1.877 | 9.408 |

Source: ChEMBL document CHEMBL3988442, “University of Dundee, Small-Polar-MMV Screening Library” (2021).